According to US7220576B2, “Methods and compositions for protein expression and purification” (Lifesensors, Inc., priority 2002, dated 2007):

What was measured:
yeast = experiment: Expression and cleavage of UBL-GFP / SUMO-X-GFP fusions in yeast (Western blot); format: cell-based, S. cerevisiae; conditions: for Cleavage of fusion by endogenous hydrolases in yeast: yeast BJ1991, copper induction
Hi-Five insect cells = experiment: Expression, secretion and cleavage of SUMO/ubiquitin GFP fusions in insect cells (Western blot); format: cell-based

| Substance | Detection of unfused GFP by Western blot (yeast; yeast, 20 ug protein loaded) | Cleavage by endogenous SUMO hydrolases in insect cells (Hi-Five insect cells; Hi-Five cells) | Enhancement of protein expression compared to GFP (Hi-Five insect cells; insect cells, Met as N-termini) | Secretion compared to GFP (Hi-Five insect cells; insect cells, media) | Cleavage of fusion by endogenous hydrolases in yeast (yeast) | Cleavage of fusion by endogenous hydrolases in yeast (yeast; listed as SUMO) |
| --- | --- | --- | --- | --- | --- | --- |
| GFP [reference compound] | not detectable. | – | – | – | – | – |
| SUMO-GFP: SUMO fused to N-terminus of GFP (SEQ ID NO: 5) | – | efficiently cleaved | 10 fold compared to GFP | At least 50 fold compared to GFP | efficiently cleaved | fusions were processed and GFP |
